Measurements as given in publication PMC4203773.
No constants are given. Whether binding was seen depends on the method and setting. Binding calls can cover weak binding; strength is not graded here.

Experiments:
Assay in all cases: two-hybrid; Matchmaker Gold Yeast 2-Hybrid System; Kctd12.1 in pGAD (Gal4 activation domain), Ulk2 fragments in pGBK (Gal4 DNA-binding domain, bait); Y2H Gold yeast; five fold serial dilutions spotted on -LEU -TRP and on -ADE -HIS -LEU -TRP plates; growth after 2-3 days at 30°C
[1] = biological target: Ulk2 PS domain fragment PS-1 (272-401) (zebrafish (Danio rerio))
[2] = biological target: Ulk2 PS domain fragment PS1.4–1.5 (zebrafish (Danio rerio))
[3] = biological target: Ulk2 PS domain fragment PS1.3–1.4 (zebrafish (Danio rerio))

Measured: binding

B1: Kctd12.1 (protein, UniProt Q804Q4 1-288)
chain: MALADPECGISNGADSASPFSVIIELNVGGQVYVTRHTTLIAVPDSLLWNMFSKKTPAELARDSKGRFFLDRDGFLFRYILDYLRDLNLVLPDYFPEKSRLQREAEFFQLRDLSKLLSPKMSKDNSITDEICQSDSEEPSASATPVVGPETSRTLSVASSAHSPSLESRKSGYITVGYRGSYTMGRDIQTDAKFRRVARITVCGKTSLAKEVFGDTLNESRDPDRPPERYTSRYYLKYNFLEQAFDKLSEFGFQMVACSSTGTCAYSSSDPNEDKVWTSYTEYVFCRE
binds: [1] | [2] | [3]
